Where cells or extracts were used, other partners may take part. For some of these results: Negatives hold for the conditions tested.
How the values were obtained:
LacI(1-338)-SC35 fusion = LacI(1-338)-SC35 fusion (UniProt P03023); experiment: binding assay; conditions: protein in cells
LacI(1-338) = LacI(1-338) (UniProt P03023); experiment: pull-down; conditions: biotinylated O-Sym on streptavidin sepharose; 250 mM KCl, 4 C; protein in a lysate after overexpression; label: 5' Cy3 or biotin
[1] = target: LacI(1-338)-SC35 fusion (lysate) (UniProt P03023); experiment: pull-down; conditions: biotinylated O-Sym on streptavidin sepharose; 250 mM KCl, 20 mM Hepes pH 7.5, 4 C; mock beads as control; protein in a lysate after overexpression; label: 5' Cy3 or biotin

Amino acid sequences for entries named in this document (tags omitted). Residues count along the entry.
UniProt P03023, 1-338: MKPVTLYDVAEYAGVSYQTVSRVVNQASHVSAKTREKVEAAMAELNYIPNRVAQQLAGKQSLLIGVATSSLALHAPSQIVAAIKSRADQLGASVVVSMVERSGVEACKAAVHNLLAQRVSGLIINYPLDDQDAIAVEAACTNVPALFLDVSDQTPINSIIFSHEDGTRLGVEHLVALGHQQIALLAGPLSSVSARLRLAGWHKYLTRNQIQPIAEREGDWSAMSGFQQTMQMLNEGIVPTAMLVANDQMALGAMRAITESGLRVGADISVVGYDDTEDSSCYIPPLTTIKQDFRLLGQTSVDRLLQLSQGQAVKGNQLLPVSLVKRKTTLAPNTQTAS

## TCGAGTTTACTCCCTATCAGTGATAGAGAACGTATGTCGCC / GGCGACATACGTTCTCTATCACTGATAGGGAGTAAACTCGT [Tet-O]
LacI(1-338)-SC35 fusion; multiplex detection in co-transfected cells, no co-localisation of signals, label: 5' Cy5 or biotin
  binding result: no binding

## GCGTGTGCCAGAATTGTGAGCGCTCACAATTTCTTGAATCT / AGATTCAAGAAATTGTGAGCGCTCACAATTCTGGCTCACGC [O-Sym]
LacI(1-338)-SC35 fusion; in situ fluorescence in fixed cells, 50-100 nM Cy3 O-Sym, 150 mM KCl, herring sperm DNA, 37 C, label: 5' Cy3 or biotin
  binding result: binds
LacI(1-338)
  binding result: binds
[1]
  binding result: binds
